{
  "source": "patent US20230399623A1",
  "about": "“ARTIFICAL LIVER ORGANOIDS AND METHODS OF THEIR PRODUCTION” (Oslo Universitetssykehus HF, priority 2020, published 2023)",
  "test_system": "organoids",
  "test": "Total bilirubin assay, bilirubin uptake by organoids",
  "format": "cell-based, human",
  "conditions": "over a period 48 hours",
  "note": "At least one structure is not confirmed: it was looked up by name or label, or the drawing left a doubt.",
  "data": [
    {"smiles": "C=CC1=C(C)/C(=C/c2[nH]c(Cc3[nH]c(/C=C4\\NC(=O)C(C)=C4C=C)c(C)c3CCC(=O)O)c(CCC(=O)O)c2C)NC1=O", "note": "[unconjugated bilirubin, bilirubin]", "values": [
      {"measurement": "uptake by organoids", "result": "effective uptake"}
    ]}
  ]
}
